Experimental data from paper PMC5862502, “Coordinated regulation of Arabidopsis microRNA biogenesis and red light signaling through Dicer-like 1 and phytochrome-interacting factor 4”.

B1: PIF4 fragment aa 255-431, yeast two-hybrid fusion (domain or fragment, UniProt Q8W2F3 255-430)
chain: RSRAAEVHNLSERRRRDRINERMKALQELIPHCSKTDKASILDEAIDYLKSLQLQLQVMWMGSGMAAAAASAPMMFPGVQPQQFIRQIQSPVQLPRFPVMDQSAIQNNPGLVCQNPVQNQIISDRFARYIGGFPHMQAATQMQPMEMLRFSSPAGQQSQQPSSVPTKTTDGSRLDH
B2: PIF4 fragment aa 123-431, yeast two-hybrid fusion (domain or fragment, UniProt Q8W2F3 123-430)
chain: PKACPDPPPQVMPPPKFRLTNSSSGIRETEMEQYSVTTVGPSHCGSNPSQNDLDVSMSHDRSKNIEEKLNPNASSSSGGSSGCSFGKDIKEMASGRCITTDRKRKRINHTDESVSLSDAIGNKSNQRSGSNRRSRAAEVHNLSERRRRDRINERMKALQELIPHCSKTDKASILDEAIDYLKSLQLQLQVMWMGSGMAAAAASAPMMFPGVQPQQFIRQIQSPVQLPRFPVMDQSAIQNNPGLVCQNPVQNQIISDRFARYIGGFPHMQAATQMQPMEMLRFSSPAGQQSQQPSSVPTKTTDGSRLDH
B3: PIF4 fragment aa 211-431, yeast two-hybrid fusion (domain or fragment, UniProt Q8W2F3 211-430)
chain: IKEMASGRCITTDRKRKRINHTDESVSLSDAIGNKSNQRSGSNRRSRAAEVHNLSERRRRDRINERMKALQELIPHCSKTDKASILDEAIDYLKSLQLQLQVMWMGSGMAAAAASAPMMFPGVQPQQFIRQIQSPVQLPRFPVMDQSAIQNNPGLVCQNPVQNQIISDRFARYIGGFPHMQAATQMQPMEMLRFSSPAGQQSQQPSSVPTKTTDGSRLDH

target: two C-terminal DsRBDs of DCL1 (DCL1-RBD), yeast two-hybrid fusion (Arabidopsis); assay: two-hybrid; directed; co-transformed yeast spotted on SC minus Trp and Leu, then grown on SC minus His, Trp and Leu with 5 mM 3-AT

binding, binds:
B1, B2, B3

No constants are given. Whether binding was seen depends on the method and setting. Binding calls can cover weak binding; strength is not graded here. Sequences can lack the tags named with a protein.
